Literature values, collected in patent US9012177B2, “Methods and compositions for improving sugar transport, mixed sugar fermentation, and production of biofuels” (The Regents of the University of California, priority 2009, dated 2015).
Like-named read-outs stand apart in the source and are kept apart here. At least one read-out could not be matched to a standard name with certainty.

Settings: saturated xylitol, Watanabe et al. (2005b)

B1: psXDH (protein, UniProt P22144 1-363, looked up)
D-xylulose reductase: MTANPSLVLNKIDDISFETYDAPEISEPTDVLVQVKKTGICGSDIHFYAHGRIGNFVLTKPMVLGHESAGTVVQVGKGVTSLKVGDNVAIEPGIPSRFSDEYKSGHYNLCPHMAFAATPNSKEGEPNPPGTLCKYFKSPEDFLVKLPDHVSLELGALVEPLSVGVHASKLGSVAFGDYVAVFGAGPVGLLAAAVAKTFGAKGVIVVDIFDNKLKMAKDIGAATHTFNSKTGGSEELIKAFGGNVPNVVLECTGAEPCIKLGVDAIAPGGRFVQVGNAAGPVSFPITVFAMKELTLFGSFRYGFNDYKTAVGIFDTNYQNGRENAPIDFEQLITHRYKFKDAIEAYDLVRAGKGAVKCLIDGPE
kcat/Km (NAD+): 46000 M⁻¹ s⁻¹ | kcat/Km (NADP+): 10.8 M⁻¹ s⁻¹
